For part of these data: Expression grades refer to the transcript from which the peptide derives; gene names, where given, were looked up from the sequence.
Assays:
[1] = tested on: source genes (mRNA); assay: Gene and exon expression of source genes, TCGA tumor samples compared with normal tissue samples (Lonsdale, 2013) (Table 17); parameters: species or system human; details: for Target coverage: over-expression category of source gene, LAML: Acute Myeloid Leukemia (N = 173); for Target coverage: over-expression category of source gene, BRCA: Breast cancer (N = 1104), cutoff more than 2-fold above highest 75% percentile of high and medium risk normal tissue samples
[2] = tested on: source genes (mRNA); assay: Expression profiling of source genes by in-house RNASeq of tumor and normal tissues (Table 18, FIG. 2); parameters: species or system human; key: very highly over-expressed in tumors compared to a panel of normal tissues (+++); highly over-expressed in tumors compared to a panel of normal tissues (++); over-expressed in tumors compared to a panel of normal tissues (+); details: source gene of peptide; for Expression score BRCA: BRCA tumors vs panel of normal tissues
[3] = tested on: HLA-A*02; assay: Identification and relative LC-MS quantitation of HLA-A*02-presented tumor-associated peptides on tissue samples (presentation profiles, Tables 13A, 13B, 15, FIG. 1); parameters: species or system human; key to Presentation score NHL / Presentation score CLL / Presentation score BRCA / Presentation score AML / Presentation score GB / Presentation score NSCLC / Presentation score GBC_CCC / Presentation score UEC / Presentation score MEL / Presentation score OSCAR / Presentation score GC / Presentation score UBC / Presentation score OC / Presentation score RCC / Presentation score CRC / Presentation score PCA / Presentation score HCC / Presentation score PC / Presentation score SCLC: specifically presented on tumors (++++); very highly over-presented on tumors compared to a panel of normal tissues (+++); highly over-presented on tumors compared to a panel of normal tissues (++); over-presented on tumors compared to a panel of normal tissues (+); details: for Peptide Presentation on cancer entities: HLA-A*02-binding tumor-associated peptides; for Presentation score CLL: chronic lymphocytic leukemia (N = 17) vs panel of normal tissues (N = 262); for Presentation score NSCLC: non-small cell lung cancer (N = 90) vs panel of normal tissues (N = 262)
[4] = cutoff more than 2-fold above highest 75% percentile of normal tissue samples
[5] = Table 13A, cancer entities on which the peptide was found presented

## 55: peptide found in NEK10 (gene looked up) (SLATKIVEA; listed as Homo sapiens) [compound 55]
[1]; [4]
  Target coverage: over-expression category of source gene, LAML: C (>=5% of tumors above the cutoff, but <20%)
[1]
  Target coverage: over-expression category of source gene, BRCA: B (>= 20% of tumors above the cutoff, but <50%)
[2]
  Expression score BRCA: +
[3]; HLA-A*02 peptides, acute myeloid leukemia (N = 18) vs panel of normal tissues (N = 262)
  Presentation score AML: +++
[3]; HLA-A*02 peptides, breast cancer (N = 17) vs panel of normal tissues (N = 262)
  Presentation score BRCA: +++
[3]; HLA-A*02 peptides, ovarian cancer (N = 20) vs panel of normal tissues (N = 262)
  Presentation score OC: +++
[3]; HLA-A*02 peptides, prostate cancer and benign prostate hyperplasia (N = 39) vs panel of normal tissues (N = 262)
  Presentation score PCA: +++
[3]; [5]
  Peptide Presentation on cancer entities: PCA, OC, BRCA, AML

## 16: peptide found in ATAD2 (gene looked up) (YTLDIPVLFGV; listed as Homo sapiens) [compound 16]
[1]; [4]
  Target coverage: over-expression category of source gene, LAML: A (>=50% of tumors above the cutoff)
[1]; Bladder urothelial carcinoma (N = 408), cutoff more than 2-fold above highest 75% percentile of normal tissue samples
  Target coverage: over-expression category of source gene, BLCA: B (>= 20% of tumors above the cutoff, but <50%)
[1]
  Target coverage: over-expression category of source gene, BRCA: A (>=50% of tumors above the cutoff)
[1]; Cholangiocarcinoma (N = 36), cutoff more than 2-fold above highest 75% percentile of normal tissue samples
  Target coverage: over-expression category of source gene, CHOL: C (>=5% of tumors above the cutoff, but <20%)
[1]; Colon and rectal adenocarcinoma (N = 167), cutoff more than 2-fold above highest 75% percentile of normal tissue samples
  Target coverage: over-expression category of source gene, READ: B (>= 20% of tumors above the cutoff, but <50%)
[1]; Colon and rectal adenocarcinoma (N = 462), cutoff more than 2-fold above highest 75% percentile of normal tissue samples
  Target coverage: over-expression category of source gene, COAD: B (>= 20% of tumors above the cutoff, but <50%)
[1]; Esophageal cancer (N = 185), cutoff more than 2-fold above highest 75% percentile of normal tissue samples
  Target coverage: over-expression category of source gene, ESCA: A (>=50% of tumors above the cutoff)
[1]; Glioblastoma multiforme (N = 169), cutoff more than 2-fold above highest 75% percentile of normal tissue samples
  Target coverage: over-expression category of source gene, GBM: C (>=5% of tumors above the cutoff, but <20%)
[1]; Liver hepatocellular carcinoma (N = 374), cutoff more than 2-fold above highest 75% percentile of normal tissue samples
  Target coverage: over-expression category of source gene, LIHC: C (>=5% of tumors above the cutoff, but <20%)
[1]; Lower grade glioma (N = 534), cutoff more than 2-fold above highest 75% percentile of normal tissue samples
  Target coverage: over-expression category of source gene, LGG: C (>=5% of tumors above the cutoff, but <20%)
[1]; Lung adenocarcinoma (N = 517), cutoff more than 2-fold above highest 75% percentile of normal tissue samples
  Target coverage: over-expression category of source gene, LUAD: B (>= 20% of tumors above the cutoff, but <50%)
[1]; Lung squamous cell carcinoma (N = 503), cutoff more than 2-fold above highest 75% percentile of normal tissue samples
  Target coverage: over-expression category of source gene, LUSC: A (>=50% of tumors above the cutoff)
[1]; Lymphoid neoplasm diffuse large B-cell lymphoma (N = 48), cutoff more than 2-fold above highest 75% percentile of normal tissue samples
  Target coverage: over-expression category of source gene, DLBC: B (>= 20% of tumors above the cutoff, but <50%)
[1]; Ovarian serous cystadenocarcinoma (N = 309), cutoff more than 2-fold above highest 75% percentile of normal tissue samples
  Target coverage: over-expression category of source gene, OV: A (>=50% of tumors above the cutoff)
[1]; Prostate adenocarcinoma (N = 498), cutoff more than 2-fold above highest 75% percentile of normal tissue samples
  Target coverage: over-expression category of source gene, PRAD: C (>=5% of tumors above the cutoff, but <20%)
[1]; Skin cutaneous melanoma (N = 473), cutoff more than 2-fold above highest 75% percentile of normal tissue samples
  Target coverage: over-expression category of source gene, SKCM: B (>= 20% of tumors above the cutoff, but <50%)
[1]; Stomach adenocarcinoma (N = 415), cutoff more than 2-fold above highest 75% percentile of normal tissue samples
  Target coverage: over-expression category of source gene, STAD: A (>=50% of tumors above the cutoff)
[1]; Uterine corpus endometrial carcinoma (N = 546), cutoff more than 2-fold above highest 75% percentile of normal tissue samples
  Target coverage: over-expression category of source gene, UCEC: C (>=5% of tumors above the cutoff, but <20%)
[2]
  Expression score BRCA: +
[2]; colorectal cancer (N = 20) vs panel of normal tissues
  Expression score CRC: +
[2]; esophageal cancer incl. gastric-esophageal junction (N = 11) vs panel of normal tissues
  Expression score OSCAR: +
[2]; gallbladder adenocarcinoma and cholangiocarcinoma (N = 3) vs panel of normal tissues
  Expression score GBC_CCC: +
[2]; non-Hodgkin lymphoma (N = 10) vs panel of normal tissues
  Expression score NHL: +
[2]; non-small cell lung cancer (N = 11) vs panel of normal tissues
  Expression score NSCLC: +
[2]; ovarian cancer (N = 12) vs panel of normal tissues
  Expression score OC: ++
[2]; small cell lung cancer (N = 10) vs panel of normal tissues
  Expression score SCLC: +++
[3]; HLA-A*02 peptides
  Presentation score CLL: ++++
  Presentation score NSCLC: ++++
[3]; HLA-A*02 peptides, hepatocellular carcinoma (N = 16) vs panel of normal tissues (N = 262)
  Presentation score HCC: ++++
[3]; HLA-A*02 peptides, melanoma (N = 7) vs panel of normal tissues (N = 262)
  Presentation score MEL: ++++
[3]; HLA-A*02 peptides, non-Hodgkin lymphoma (N = 18) vs panel of normal tissues (N = 262)
  Presentation score NHL: ++++
[3]; [5]
  Peptide Presentation on cancer entities: NSCLC, HCC, CLL, MEL, NHL
[3]; Table 13B, presentation on additional cancer entities
  Peptide Presentation on cancer entities: HNSCC

## 246: peptide found in COG2 (gene looked up) (TVSDVLNSV; listed as Homo sapiens) [compound 246]
[1]; BLCA = Bladder urothelial carcinoma (N = 408), same cutoff
  Over-expression category of source gene (target coverage), BLCA: A (>=50% of tumors above the cutoff)
[1]; BRCA = Breast cancer (N = 1104), tumors more than 2-fold above highest 75% percentile of normal tissues
  Over-expression category of source gene (target coverage), BRCA: A (>=50% of tumors above the cutoff)
[1]; CHOL = Cholangiocarcinoma (N = 36), same cutoff
  Over-expression category of source gene (target coverage), CHOL: A (>=50% of tumors above the cutoff)
[1]; COAD = Colon and rectal adenocarcinoma (N = 462), same cutoff
  Over-expression category of source gene (target coverage), COAD: A (>=50% of tumors above the cutoff)
[1]; DLBC = Lymphoid neoplasm diffuse large B-cell lymphoma (N = 48), same cutoff
  Over-expression category of source gene (target coverage), DLBC: A (>=50% of tumors above the cutoff)
[1]; ESCA = Esophageal cancer (N = 185), same cutoff
  Over-expression category of source gene (target coverage), ESCA: A (>=50% of tumors above the cutoff)
[1]; GBM = Glioblastoma multiforme (N = 169), same cutoff
  Over-expression category of source gene (target coverage), GBM: A (>=50% of tumors above the cutoff)
[1]; KICH = Kidney chromophobe (N = 66), same cutoff
  Over-expression category of source gene (target coverage), KICH: C (>=5% of tumors above the cutoff, but <20%)
[1]; KIRC = Clear cell kidney carcinoma (N = 534), same cutoff
  Over-expression category of source gene (target coverage), KIRC: A (>=50% of tumors above the cutoff)
[1]; KIRP = Papillary kidney carcinoma (N = 291), same cutoff
  Over-expression category of source gene (target coverage), KIRP: A (>=50% of tumors above the cutoff)
[1]; LAML = Acute Myeloid Leukemia (N = 173), same cutoff
  Over-expression category of source gene (target coverage), LAML: A (>=50% of tumors above the cutoff)
[1]; LGG = Lower grade glioma (N = 534), same cutoff
  Over-expression category of source gene (target coverage), LGG: A (>=50% of tumors above the cutoff)
[1]; LIHC = Liver hepatocellular carcinoma (N = 374), same cutoff
  Over-expression category of source gene (target coverage), LIHC: B (>= 20% of tumors above the cutoff, but <50%)
[1]; LUAD = Lung adenocarcinoma (N = 517), same cutoff
  Over-expression category of source gene (target coverage), LUAD: A (>=50% of tumors above the cutoff)
[1]; LUSC = Lung squamous cell carcinoma (N = 503), same cutoff
  Over-expression category of source gene (target coverage), LUSC: A (>=50% of tumors above the cutoff)
[1]; OV = Ovarian serous cystadenocarcinoma (N = 309), same cutoff
  Over-expression category of source gene (target coverage), OV: A (>=50% of tumors above the cutoff)
[1]; PAAD = Pancreatic ductal adenocarcinoma (N = 179), same cutoff
  Over-expression category of source gene (target coverage), PAAD: A (>=50% of tumors above the cutoff)
[1]; PRAD = Prostate adenocarcinoma (N = 498), same cutoff
  Over-expression category of source gene (target coverage), PRAD: A (>=50% of tumors above the cutoff)
[1]; READ = Colon and rectal adenocarcinoma (N = 167), same cutoff
  Over-expression category of source gene (target coverage), READ: A (>=50% of tumors above the cutoff)
[1]; SKCM = Skin cutaneous melanoma (N = 473), same cutoff
  Over-expression category of source gene (target coverage), SKCM: A (>=50% of tumors above the cutoff)
[1]; STAD = Stomach adenocarcinoma (N = 415), same cutoff
  Over-expression category of source gene (target coverage), STAD: A (>=50% of tumors above the cutoff)
[1]; UCEC = Uterine corpus endometrial carcinoma (N = 546), same cutoff
  Over-expression category of source gene (target coverage), UCEC: A (>=50% of tumors above the cutoff)
[2]
  Expression score BRCA: +
[2]; uterine cancer (N = 10) vs panel of normal tissues
  Expression score UEC: +
[3]; HLA-A*02 peptides
  Presentation score CLL: ++++
  Presentation score NSCLC: ++++
[3]; HLA-A*02 peptides, glioblastoma (N = 41) vs panel of normal tissues (N = 262)
  Presentation score GB: ++++
[3]; [5]
  Peptide Presentation on cancer entities: GB, NSCLC, CLL

Reference: US20170189504A1, “NOVEL PEPTIDES AND COMBINATION OF PEPTIDES FOR USE IN IMMUNOTHERAPY AGAINST VARIOUS CANCERS” (immatics biotechnologies GmbH, priority 2015, published 2017)
